This note sets out measurements from the supplement of paper PMC9578143, “Small-Molecule Ebselen Binds to YTHDF Proteins Interfering with the Recognition of N^6-Methyladenosine-Modified RNAs” (ACS Pharmacology & Translational Science, 2022).

This is one part of the list. Part of the spread comes from offsets between plates or batches.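 Hits were defined as a z-score below −3.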

The assay deals with T1, YTHDF1 YTH domain (aa 365-554) (UniProt Q9BYJ9).
T1 sequence (whole entry): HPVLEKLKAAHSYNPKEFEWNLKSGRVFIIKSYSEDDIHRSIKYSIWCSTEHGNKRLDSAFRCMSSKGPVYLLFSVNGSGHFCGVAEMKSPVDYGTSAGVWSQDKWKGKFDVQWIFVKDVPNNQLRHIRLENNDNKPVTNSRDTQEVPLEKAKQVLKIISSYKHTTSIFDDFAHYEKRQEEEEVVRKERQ
The experiment in a line: tryptophan fluorescence intensity z-score (mean); higher = higher fluorescence, less quenching (negative = binding / quenching). The conditions noted are these: 10 µM.
In the case of `COC(=O)C[C@H]1C(C)(C)[C@@H](OC(C)=O)[C@@H]2CC3=C4CC(=O)O[C@@H](c5ccoc5)[C@]4(C)CC[C@@H]3[C@@]1(C)C2=O` (plate: M 13-14), the “tryptophan fluorescence intensity z-score” value was inactive: 0.633.

`CC(=O)O[C@@H]1C[C@@]2(C)C(CC[C@@H]2C(C)=O)C2CCC3=CC(=O)CC[C@]3(C)C21` (stereo partly specified) (plate: M 19-20): the “tryptophan fluorescence intensity z-score” value is inactive: 0.335. The figure for `CCOC(=O)CCC(=O)O[C@H]1[C@H](O[C@@H]2[C@@H](C)[C@H](O[C@H]3C[C@@](C)(OC)[C@@H](O)[C@H](C)O3)[C@@H](C)C(=O)O[C@H](CC)[C@@](C)(O)[C@H](O)[C@@H](C)C(=O)[C@H](C)C[C@@]2(C)O)O[C@H](C)C[C@@H]1N(C)C` (plate: M 3-4) is inactive: -0.22; for `C[C@]12C=CC(=O)C=C1CC[C@@H]1[C@@H]2C(=O)C[C@@]2(C)[C@H]1CC[C@]2(O)C(=O)CO` (plate: M 5-6) it is inactive: -0.0248; for `CC1(C)[C@@H](O[C@H]2O[C@H](C(=O)O)[C@@H](O)[C@H](O)[C@H]2O[C@@H]2O[C@H](C(=O)O)[C@@H](O)[C@H](O)[C@H]2O)CC[C@]2(C)[C@H]3C(=O)C=C4[C@@H]5C[C@@](C)(C(=O)O)CC[C@]5(C)CC[C@@]4(C)[C@]3(C)CC[C@@H]12` (plate: M 21-22) it is inactive: 0.46. As for `CNC(=C[N+](=O)[O-])NCCSCc1csc(CN(C)C)n1` (plate: M 13-14), the figure is inactive: 0.329; as for `O=C(O)C1=CCNCC1` (plate: M 21-22), inactive: -0.324; as for `CCn1cc(C(=O)O)c(=O)c2cc(F)c(N3CCNC(C)C3)c(F)c21` (stereo unspecified) (plate: M 7-8), inactive: 0.142. Take `CS(=O)(=O)Nc1ccc([N+](=O)[O-])cc1Oc1ccccc1` (plate: M 21-22): the “tryptophan fluorescence intensity z-score” value was inactive: 0.546. On to `CCCCC(=O)Oc1ccccc1C(=O)O` (plate: M 23-24), for which the “tryptophan fluorescence intensity z-score” value is inactive: 0.296.

`CCn1cc(C(=O)O)c(=O)c2cc(F)c(N3CCN(C)CC3)cc21` (plate: M 9-10): the “tryptophan fluorescence intensity z-score” value was inactive: -0.0751. Take `C[C@@H]1O[C@@H]1P(=O)(O)O` (plate: M 13-14): the “tryptophan fluorescence intensity z-score” value was inactive: 0.467.

Turning to `Cc1ccc(C(C)C)cc2c(C)ccc1-2` (plate: M 19-20), the “tryptophan fluorescence intensity z-score” value is inactive: 0.501. As to `CN1CCN(C(c2ccccc2)c2ccc(Cl)cc2)CC1` (stereo unspecified) (plate: M 1-2), the “tryptophan fluorescence intensity z-score” value is inactive: 0.417. As for `CC(=O)Nc1ccc(S(=O)(=O)Nc2ccc([N+](=O)[O-])cc2)cc1` (plate: M 13-14), the figure is inactive: 0.393; as for `Cc1ccc(C(=O)Nc2ccc(S(=O)(=O)O)c3cc(S(=O)(=O)O)cc(S(=O)(=O)O)c23)cc1NC(=O)c1cccc(NC(=O)Nc2cccc(C(=O)Nc3cc(C(=O)Nc4ccc(S(=O)(=O)O)c5cc(S(=O)(=O)O)cc(S(=O)(=O)O)c45)ccc3C)c2)c1` (plate: M 7-8), inactive: -1.13.
